Hit rate of the full screen: of about 52,000 sequences, about 210 (0.4%) were called active.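 How the source made its calls: active means gene whose silencing raises cell survival under the drug, median off-target-corrected z-score across its silencing RNAs 2 or more; inactive means the rest.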 This is one part of the list.
Test: Resistance to Poly (ADP-Ribose) Polymerase inhibitor: Gene Identification via Genome-wide siRNA Screen
Conditions: mouse BRCA2 R2336H ES cells, olaparib, CellTiter-Glo viability; hits give high values
Method in brief: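 Genome-wide siRNA screen (3 siRNAs/gene, 20 nM) in mouse ES cells carrying hypomorphic BRCA2 R2336H; olaparib 500 nM added 48 h post-transfection, CellTiter-Glo viability 72 h later. Normalized to plate-median negative control; MAD z-scores, gene median, seed-adjusted.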

Sequence	z-score
GCAUAAGCUACUGCUGACATT against Pcdha6	inactive: 0.869
GCUCCUUCCCGUUUCUAGATT against 4921511H03Rik	inactive: 0.403
GGAGAAUGCUGAAACACCUTT against D13Bwg1146e	inactive: 1.92
GCCUCCGUUUGAAAUAGAGTT against 6330408A02Rik	inactive: 1.63
GUGUGUGGAGAAGCCAGGATT against Timm8b	inactive: -0.535
GGGAUACCCGGCGUAAUCUTT against Col4a2	inactive: -0.898
GCAUCAGGCCCGUUCAGAATT against Ddx4	inactive: -0.0301
GCUGGUCGUCAUCAAAUGUTT against 5031410I06Rik	inactive: 3.56
GGAGACAGCAUUCAUUUAUTT against Wnt16	inactive: 0.447
GGGAACCUCACCAUUAUCATT against Olfr769	inactive: -0.997
GGCAAAGCUCUAAACGGGUTT against Cnil	inactive: -0.696
GGCAUCCUGAGAGAACUCATT against 6030419C18Rik	inactive: -1
GGAGAUCGAUUUGGAAAACTT against Irx3	inactive: 0.29
GGCAACAUCAGAAUUGGAATT against Clcn2	inactive: -0.232
CCGGGUUCUUUGAAGUGACTT against Sepw1	inactive: -1.56
GGACCAGGUAUUCAUGAUCTT against Sema3c	inactive: 1.79
GCAGACCAUAGAUAAUUGGTT against Casp14	inactive: -0.402
CCCUAAUCAGUUCACCAUCTT against Tgif2	inactive: -0.757
GGCCCAGGUGCUAUUCUUUTT against Slc12a3	inactive: 1.66
CCGCUACGACAAGGACAAGTT against Thap1	inactive: -2.75
GGUGCUGUUUGUAGACUCATT against Fkbp1a	inactive: -0.0138
GGAUUAUAUGCCAAGUGAUTT against Phyh	inactive: -1.49
GGUAUUUUUUACAGGACCATT against C78915	inactive: 1.04
GCAGAUCAAUGACUAUAGATT against Arhgef11	inactive: 0.0578
GGAAUACAGGAAAAUCAAATT against Ell	inactive: -0.513
CCAUCCAUCAACAAAGCCATT against Pde4d	inactive: 1.02

Some values from the entries so far.
GGGAUACCCGGCGUAAUCUTT against Col4a2 – z-score: inactive: -0.898
CCGGGUUCUUUGAAGUGACTT against Sepw1 – z-score: inactive: -1.56
CCCUAAUCAGUUCACCAUCTT against Tgif2 – z-score: inactive: -0.757
GGAAUACAGGAAAAUCAAATT against Ell – z-score: inactive: -0.513

(continued)

Sequence	z-score
GCUACAGCUUCAAUUAAAUTT against Birc6	inactive: 0.0846
CGACCACAUGAGGAUGCAUTT against Zbtb20	inactive: 0.281
GGAGUGGAAGAGAAAAUUUTT against Cts8	inactive: -1.44
GGUGUUCCAGGUGAGAAAATT against Rps6kb2	inactive: -0.0706
GGCACGAUUUGCUUAUUUUTT against Usf2	inactive: 0.522
GGAUAUGCCAGAGACACUGTT against Carf	inactive: -1.71
CCUAUGCUGAAAUUCUUGATT against Ndufc2	inactive: 0.919
UCAAACUAGGUGCUGUUGUTT against Olfr584	active: -1.11
GGAAUCGAGAUCUUAAACATT against Itih1	inactive: 0.279
UUGGAACACCCUUUCUCAATT against Olfr1206	inactive: -1.11
GGCCAUUUGAAUCUUCUUUTT against Pigr	inactive: 0.954
GCAGUCGCUUUGUUUUAUATT against Olfr1204	inactive: -0.218
GUCCAUUGCUUAGUGCGAUTT against Olfr961	inactive: -1.46
GGCACAAAAUGACCAAAAUTT against Npy2r	inactive: 0.103
CGACUCUUACCAACCUUUUTT against Lhx2	inactive: -0.507
GGGCAGAAACGGAUAAUGGTT against Fgl1	inactive: -1.66
CGUUCUAUUCUUGACAACATT against 1700029I01Rik	inactive: -0.465
GGAACAGCAGCAUCACAGUTT against BC022146	inactive: -0.551
GGAACAGAGCCUUUCUCAGTT against 5830442J12Rik	inactive: 2.9
GGCCGACUUGAUCAAUAACTT against Hspca	inactive: 0.0146
CGGUCUCUUCCUAAGUAAUTT against Cad	inactive: 0.836
CCUGGUAACAGUCAUAAAUTT against Lhfpl2	inactive: -0.196
GGAAAUUACCUUGAUGAUGTT against Anxa4	inactive: -0.924
GCUCAACCAGUGUUAAAACTT against F2rl1	inactive: 0.0882
GGAGCAGCUGUCCAUCAAUTT against Sart3	inactive: 1.33
GCGGGACAUAUGAAUCUACTT against Il23a	inactive: 1.05

Sequence	z-score
GCAGUUCAUACUCUCUGCATT against Olfr919	inactive: -0.784
GGCUAUGGAGUUCACCACATT against Krtap5-5	inactive: -1.05
GGCAUAGCUGGUCUGAAGATT against Slc3a2	inactive: -0.671
GGCUGCAUAAAAGCAUUAATT against Aldh1a1	inactive: 2.12
CGCUUCAUGACUUCUGAAUTT against 4930579J09Rik	inactive: -0.375
GCUACGUUACUAGGCAGUGTT against Mapk8ip2	inactive: -0.297
GGACUCAUAUCCUUACAUATT against AI854703	inactive: -0.322
GGAGAAACCAGGAUCUAUUTT against Rnf14	inactive: 0.203
CCAUGUGAUAUAAAGAGGATT against Apbb2	inactive: -0.909
CCACUCUGGCGAACCCAUUTT against 5730508B09Rik	inactive: 0.73
GGCGAGAGAUGUUCGACAATT against MGC36320	inactive: 1.61
GGUUUGUUGUUGUUUUUGGTT against AI854408	inactive: 0.388
GGUGAAGACACUCAAGGCUTT against Junb	inactive: 0.153
GGCUGACCACAUUAUAAGUTT against Ppox	inactive: 0.276
GGCAAUCCUAACACAGAAUTT against 1810009H17Rik	inactive: 1.3
GGUUCCUAAAGUAAAAACCTT against Gnpnat1	inactive: 0.159
CCAACAAAAGCCUAUUCGGTT against Hsh2d	inactive: -0.734
GGAUUAAGUGCUCUUGGGUTT against Plscr4	inactive: -0.12
GGAAGAGCUAAUCGAUAUCTT against 2810442O16Rik	inactive: -0.145
GGAGACAAACUCAAAACUGTT against Lyplal1	inactive: 1.95
GGAGAAUAGGAAUGUUUUUTT against Zfp112	inactive: 0.724
GCCAGAAUGUAUCCACGUGTT against Hspa12a	inactive: 0.451
GGAGCACCUGAUUUAUCCCTT against 1700019F09Rik	inactive: 0.397
CCAUCUUGAAGAUUCGUUCTT against Olfr486	inactive: -0.115
GGAUCCUCUCAUUAAGAAATT against Gabra1	inactive: -1.59
CCUGAGCAUGAUGUGAAAUTT against Lgi4	inactive: -0.846

Sequence	z-score
GGAAAUUGACAGAAUGGUUTT against Gcipip	inactive: 0.524
GGCCAGUGGUUGUCUUAUGTT against Cyp2g1	inactive: 0.106
CGGGAUCGUACUAAGCUGATT against 4933411G11	inactive: -1.06
GGAUUAAGGACAGUUUGAUTT against Mrpl16	inactive: -1.09
GAUGUUGGCUCAUCUAGUATT against Olfr1340	inactive: -0.446
CCACCAAUGAGUACGUCUATT against Prkcsh	inactive: -1.57
CCGGAGAUGGUUGCGUAGATT against Cdkn1c	inactive: 1.12
GCCCAAGACGACAUGAACUTT against F830029L24Rik	inactive: 1.17
GGAUGAGGUUCUGAAAAUCTT against Rps2	inactive: -3.5
GCCAUAUUGCUGUUUGCAATT against 4930428O21Rik	inactive: -0.791
GGCUAUGAUGAUUAUAAUGTT against Hnrph1	inactive: 0.923
GGCCUUUGUUUCUAAGUACTT against Plag1	inactive: -1.77
GGAAGACCGUACUAUGUUUTT against Gtl2	inactive: -2.38
GGAAGAAAACAAGUAAAACTT against Ccr4	inactive: 0.171
GGACUCUGAUCUGGAGUAGTT against D630035O19Rik	inactive: 0.309
GGUGAAAUACCCGUCUUAUTT against Cyp2f2	inactive: -1.82
GCGUGGUAUGGUAAAAGUUTT against Arx	inactive: -0.967
GGACCUUAUUGAUUCUCUATT against Tex21	inactive: -0.626
GGACGGGAAAUUUUUGAUCTT against Rnf149	inactive: -0.299
GGAGAAGAAGAACUACUGCTT against A930041G11Rik	inactive: 0.691
GGUGAUUGACUUGCCAGGATT against Fn3k	inactive: -0.589
CCGAUUCAGGUUUCUGUCUTT against Cdc25a	inactive: 0.693
GGAUUUUGUGAGUGUAAGATT against Ntng1	inactive: -0.353
GCGAGGAAUAACCCAGAUCTT against Olfr503	inactive: -1.76
GCUGACUCCGUGUUUUUAATT against Arhgef18	inactive: -0.518
GGUGAGCGACAAUAUGAGUTT against MGC58341	inactive: -0.928

Source: PubChem BioAssay AID1347423 (Functional Genomics Laboratory (NCATS/FGL), 2020)
